# Experimental data: the supplement of paper PMC4749390
# Where a name gives a salt, the structure may show the parent alone. The list shows a part of the results. Repeats in this data set agree poorly, so a single value says little.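 JEG3 cells stably carry tetracycline-induced wild-type human LRH-1, a heavily sumoylated nuclear receptor. APOC3 and MUC1 are SUMO-sensitive transcripts, raised by SUMO-less LRH-1 or UBC9 knockdown, measured by RT-qPCR against TBP and DMSO controls. A robust Z-score above +2 or below -2 marked a primary hit before toxicity and TBP filtering.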
# Tested on: JEG3 expressing hLRH-1
# Assay: APOC3 transcript change (ddCt vs TBP and DMSO), Z-score over library; higher = higher APOC3 expression
# Settings: 10 µM; time (hr): 24
row,Structure (SMILES),APOC3 transcript change (Z-score)
1,NN=C(N)N [Aminoguanidine hemisulfate],-0.189
2,CN1C2CCC1CC(OC(=O)C(CO)c1ccccc1)C2 (centres undefined) [Atropine sulfate],-1.01
3,CCC1(CC)C(=O)C=CNC1=O [pyrithyldione],0.281
4,O=[N+]([O-])c1ccc([As](=O)(O)O)cc1 [nitarsone],0.326
5,CC[C@H]1CN2CCc3cc(OC)c(OC)cc3C2C[C@@H]1CC1NCCc2cc(OC)c(OC)cc21 (some centres undefined) [emetine],-3.06
6,CC(C)c1c(CN(C)C(C)Cc2ccccc2)n(C)n(-c2ccccc2)c1=O (centres undefined) [famprofazone],-0.283
7,CN1CC(CNC(=O)OCc2ccccc2)C[C@H]2c3cccc4c3c(cn4C)CC21 (stereo in doubt) [metergoline],0.0416
8,CCC1(CC)C(=O)NC(=O)NC1=O [barbital],-0.964
9,O=C1CCO1 [beta-propiolactone],0.324
10,CCCCCCCCC(=O)NCc1ccc(O)c(OC)c1 [N-Vanillylnonanamide],0.905
11,Cc1cccc(C)c1NC(=O)CN1CCCC1=O [nefiracetam],0.0257
12,NCCCNCCSP(=O)(O)O [amifostine],-0.664
13,COc1ccc(OC)c(C(O)C(C)N)c1 (centres undefined) [Methoxamine hydrochloride],0.212
14,"C[C@]12CCC(=O)C=C1C=CC1C2CC[C@@]2(C)C1CC[C@@]2(O)CCC(=O)O (some centres undefined) [canrenoic acid, potassium salt]",-0.225
15,CCCCCCCCCCNCCC.CCCN.CCCNCCCCCC[N+](C)(C)C.ClCC1CO1 [colesevalam hydrochloride (high mol wt copolymer @10mg/ml)],-0.241
16,CN(C)C(=O)Oc1ccc[n+](C)c1 [Pyridostigmine bromide],0.492
17,O=C(O)CCCO [sodium oxybate],0.4
18,CN1[C@H]2C[C@H](OC(=O)[C@H](CO)c3ccccc3)C[C@@H]1[C@@H](O)C2 [anisodamine hydrobromide],-1.28
19,C[C@H](N)[C@H](O)c1ccccc1 [L(-)-Norephedrine],0.0893
20,CN1CCc2cc3c(cc2C1O)OCO3 (centres undefined) [hydrastinine hydrochloride],-0.873
21,C[C@@H]1CC[C@H]2[C@@H](C)C(=O)O[C@@H]3O[C@@]4(C)CC[C@@H]1[C@]32OO4 [artemisinin],-1
22,CN1C(=O)CCS(=O)(=O)C1c1ccc(Cl)cc1 (centres undefined) [Chlomezanone],-0.0954
23,CNC(C)(C)Cc1ccccc1 [mephentermine sulfate],-0.00524
24,C#CC1(O)CCC2C3CCC4=CC(=O)CCC4(C)C3CCC21C (centres undefined) [ethisterone],0.874
25,CC(C)C[C@H]1C(=O)N2CCC[C@H]2[C@]2(O)O[C@](NC(=O)[C@@H]3C=C4c5cccc6[nH]c(Br)c(c56)C[C@H]4N(C)C3)(C(C)C)C(=O)N12 [bromocriptine mesylate],0.479
26,CN1CCC[C@@H]1Cc1c[nH]c2cc(CCS(=O)(=O)c3ccccc3)ccc12 [eletriptan hydrobromide],-0.606
27,CC(C)=CC1C(C(=O)OCc2cccc(Oc3ccccc3)c2)C1(C)C (centres undefined) [phenothrin],-1.03
28,CNCC(O)c1ccc(O)cc1 (centres undefined) [oxedrine],-0.818
29,CC[C@@H](CO)NC(=O)[C@@H]1C=C2c3cccc4[nH]cc(c34)C[C@H]2N(C)C1 [methylergonovine maleate],0.479

# Single values from the results shown.
# `CC[C@@H](CO)NC(=O)[C@@H]1C=C2c3cccc4[nH]cc(c34)C[C@H]2N(C)C1` [methylergonovine maleate] – APOC3 transcript change (Z-score): 0.479
# `CC(C)=CC1C(C(=O)OCc2cccc(Oc3ccccc3)c2)C1(C)C` (centres undefined) [phenothrin] – APOC3 transcript change (Z-score): -1.03
